Laboratory results as given in PubChem BioAssay AID2685 (National Center for Advancing Translational Sciences (NCATS), 2010).
Some of the results follow. Shown are side measurements of this screen, not its main read-out; they come without a call. Most of these compounds were active or inconclusive in the main read-out, so they are no random draw. Potencies come from curve fits of mixed quality, noted in brackets.

Assay: qHTS Assay for Lipid Storage Modulators in Drosophila S3 Cells;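 for cell number change: cells counted by Cell Tracker Red CMTPX staining in the red channel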
Conditions: BODIPY lipid droplet fluorescence, 18-24 h; for cell number change: measured here: cell count max response, cells fed with added oleic acid
How it was run: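 Drosophila S3 cells got compounds at several concentrations plus oleic acid (400 uM solution). Laser-scanning cytometry with 488 nm excitation read lipid droplets at 500-530 nm and cells at 575-640 nm. Percent activity was relative to 20 uM Triacsin C.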

[1] = measured here: lipid fluorescence (Fed channel) AC50, cells fed with added oleic acid
[2] = measured here: cell number channel AC50, cells fed with added oleic acid

Cc1cc(C)cc(NC(=O)C2CCN(S(=O)(=O)c3ccc4[nH]c(=O)ccc4c3)CC2)c1
cell number change: -0.576%

CC(C)(C)NC(=O)CCn1nc(-c2ccc(Cl)cc2)c2ccccc2c1=O
AC50 [1]: 29.1 µM [falling, single point]

CCCc1cc(C(=O)Nc2cccc(Cl)c2C)no1
cell number change: 33.3%
AC50 [2]: 10.3 µM [rising, partial curve, poor fit]

O=C(NCc1cccnc1)c1ccc2c(c1)C(=O)N(Cc1ccccc1)C2=O
cell number change: 18.5%
AC50 [1]: 0.517 µM [rising, full curve, poor fit]

O=C(O)CCC(=O)N1N=C(c2c(-c3ccccc3)c3cc(Cl)ccc3[nH]c2=O)CC1c1ccco1 (stereo not given)
cell number change: -54.8%
AC50 [2]: 23.1 µM [falling, single point]
AC50 [1]: 3.26 µM [falling, single point]

CCC(CC)C(=O)Nc1nnc(-c2cccs2)s1
cell number change: -32.7%
AC50 [2]: 7.31 µM [falling, partial curve]
AC50 [1]: 0.13 µM [falling, full curve, poor fit]

O=[N+]([O-])c1ccc(O)c(/C=N/Nc2nc3ccccc3[nH]2)c1
cell number change: -14.8%
AC50 [1]: 29.1 µM [falling, single point]

CCC(CC)c1nnc(NC(=O)C23CC4CC(CC(NC(C)=O)(C4)C2)C3)s1
cell number change: -16.3%
AC50 [1]: 20 µM [falling, partial curve, poor fit]

Cc1cc(C)c(S(=O)(=O)c2c(C)cccc2C)c(Cl)n1
cell number change: -41.2%
AC50 [2]: 11.6 µM [falling, partial curve]
AC50 [1]: 9.2 µM [falling, partial curve]

CCN1C(=O)c2ccccc2S(=O)(=O)c2ccc(C(=O)NCc3cccnc3)cc21
cell number change: 34.9%
AC50 [2]: 29.1 µM [rising, single point]

O=C(COC(=O)C1C2CC3OC(=O)C1C3C2)Nc1ccc(Br)cc1 (stereo not given)
cell number change: -14.3%
AC50 [1]: 0.184 µM [falling, single point]

O=C(COc1ccc2c(-c3ccccc3)cc(=O)oc2c1)N[C@@H](Cc1c[nH]c2ccc(O)cc12)C(=O)O
cell number change: 23.9%

Cc1ccc(NC(=O)COc2ncnc3sccc23)cc1S(=O)(=O)N(C)C
cell number change: 75.3%
AC50 [2]: 18.4 µM [rising, partial curve]

CCN1CCN(C(=O)c2ccc(C)c(S(=O)(=O)Nc3cccc(C)c3)c2)CC1
cell number change: 23.2%
AC50 [1]: 18.4 µM [rising, single point]

O=C(NCCC(c1ccccc1)c1ccccc1)c1cnccn1
cell number change: 14.7%
AC50 [1]: 1.03 µM [rising, full curve, poor fit]

CN(CC(=O)Nc1ccc(S(=O)(=O)N2CCCC2)cc1)CC(=O)Nc1cccc(F)c1
AC50 [1]: 29.1 µM [falling, single point]

COC(=O)c1cccc(NS(=O)(=O)c2cccs2)c1C
cell number change: -1.4%

O=C(CSc1nnc(-c2ccc(C(F)(F)F)cn2)o1)Nc1cccc(Cl)c1
cell number change: 10.1%
AC50 [1]: 0.116 µM [falling, full curve, poor fit]

CCCC(=O)N1CC(=O)Nc2ccc(F)cc2C1c1ccccc1 (stereo not given)
cell number change: 7.11%
AC50 [2]: 6.51 µM [rising, single point]
AC50 [1]: 0.366 µM [rising, full curve]

COc1cc(NC(=O)COc2ccc3c(C)cc(=O)oc3c2C)cc(OC)c1OC
AC50 [2]: 2.06 µM [rising, single point]

COCCNCC(=O)Nc1ccc(C)c(S(=O)(=O)N2CCCCC2)c1
cell number change: -10.6%

COc1ccc2cc(C(=O)NC3CCCCC3)c(=O)oc2c1
cell number change: 4.87%
AC50 [1]: 1.84 µM [rising, partial curve, poor fit]

O=C(Nc1ccc(Br)cc1)c1ccccc1Br
cell number change: -15.5%
AC50 [1]: 6.51 µM [falling, single point]

COC1CCN(Cc2c(C(=O)N3CCN(C4CCCCC4)CC3)nc3ccccn23)CC1
cell number change: 8.67%
AC50 [1]: 2.91 µM [falling, full curve]

CCc1noc2c1/C(=N\O)CC(c1ccccc1)C2 (stereo not given)
cell number change: -9.14%

O=C(CSc1nnc(-c2ccccc2F)n1C1CC1)Nc1cccnc1Cl
AC50 [2]: 4.61 µM [rising, single point]

Cc1ccccc1OCC(=O)OCC(=O)N1CCc2ccccc21
cell number change: -20.5%
AC50 [2]: 0.058 µM [falling, full curve, poor fit]

COc1ccc(NC(=O)N2CCCCCC2)cc1
AC50 [2]: 0.00461 µM [falling, full curve, poor fit]
AC50 [1]: 0.00461 µM [falling, full curve, poor fit]

Cn1cccc1CNC1CCCC1
cell number change: 0.414%
AC50 [1]: 6.51 µM [falling, single point]

COc1ccc(OCC(=O)NNC(=O)c2c(-c3ccccc3Cl)noc2C)cc1
cell number change: 29.7%

NS(=O)(=O)c1ccc(N2C(=O)C3C4CC(C(Br)C4Br)C3C2=O)cc1 (stereo not given)
AC50 [1]: 0.731 µM [rising, full curve, poor fit]

CN(C)c1ccc(C(=O)/C=C/c2ccco2)cc1
cell number change: 66%
AC50 [2]: 9.2 µM [rising, partial curve]
AC50 [1]: 6.51 µM [rising, single point]

CCN(CC)S(=O)(=O)c1cc(C(=O)OCC(=O)c2ccc3c(c2)NC(=O)CO3)ccc1Cl
cell number change: -31.4%
AC50 [2]: 0.164 µM [falling, full curve]
AC50 [1]: 0.13 µM [rising, partial curve, poor fit]

Cc1ccc(N(C(=O)CCl)C(C(=O)NC2CCCCC2)c2cccnc2)cc1C (stereo not given)
cell number change: -0.141%
AC50 [1]: 32.6 µM [falling, single point]

O=C(NC1=NC2CCCCC2N1)c1ccccc1 (stereo not given)
cell number change: 0.271%
AC50 [1]: 6.51 µM [falling, full curve, poor fit]

O=C(c1cc(-c2ccc(F)cc2)no1)N1CCN(Cc2ccc3c(c2)OCO3)CC1
cell number change: 7.78%
AC50 [1]: 32.6 µM [rising, single point]

CCc1ccc(C(=O)COC(=O)CCc2nc3ccccc3c(=O)[nH]2)cc1
AC50 [1]: 7.31 µM [rising, partial curve]

O=C(Nc1ccccc1)N1CCCN(c2nccc(C(F)(F)F)n2)CC1
cell number change: 3.7%
AC50 [2]: 0.461 µM [falling, full curve]
AC50 [1]: 0.82 µM [falling, single point]

COC(=O)c1sccc1NC(=O)Nc1ccccc1C
cell number change: 0.578%

CCOC(=O)C1(Cc2cccc(F)c2)CCN(C2CCOCC2)CC1
cell number change: -2.28%

COc1ccc2cc(C(=O)NCCCN3CCCC3=O)[nH]c2c1
cell number change: -6.87%

Cc1cccc(Nc2ncnc3c2cnn3Cc2ccccc2)c1
cell number change: 99%
AC50 [2]: 14.6 µM [rising, partial curve]
AC50 [1]: 23.1 µM [rising, partial curve]

CCOc1ccc(N2C(=O)CC(N3CCN(C4CCc5ccccc5C4)CC3)C2=O)cc1 (stereo not given)
cell number change: -11.3%

O=C(NCc1ccco1)C(c1cccs1)N(Cc1ccccc1)C(=O)Cn1nnc2ccccc21 (stereo not given)
AC50 [2]: 5.8 µM [rising, single point]
AC50 [1]: 0.082 µM [falling, full curve, poor fit]

O=C(O)CCNC(=O)c1cncc(Br)c1
cell number change: -6.71%
AC50 [1]: 3.26 µM [falling, single point]

CCOC(=O)c1ccc(N2C(=O)c3n[nH]c(C)c3C2c2ccc(O)cc2)cc1 (stereo not given)
cell number change: 13.8%
AC50 [1]: 0.259 µM [rising, full curve]

CN(C)S(=O)(=O)c1cc(C(=O)NCCCn2ccc3ccccc32)ccc1Cl
cell number change: -35.7%
AC50 [2]: 20.6 µM [falling, single point]

CCN(CC)C(=O)N1CCN(Cc2ccc3c(c2)OCO3)CC1
cell number change: 32.5%
AC50 [2]: 1.64 µM [rising, full curve, poor fit]

CCCCc1ccc(-c2csc(/C(C#N)=C/c3ccc(C)o3)n2)cc1
cell number change: 90.5%
AC50 [2]: 29.1 µM [rising, single point]
AC50 [1]: 29.1 µM [rising, single point]

Cc1nnc(SCC(=O)NNC(=O)c2ccc(Cl)cc2)s1
cell number change: 5.65%
AC50 [1]: 0.58 µM [rising, single point]

CCC(=O)Nc1ccc(NC(=S)NC(=O)c2cc3ccccc3o2)cc1
cell number change: 1.04%
AC50 [1]: 29.1 µM [falling, partial curve]

Cn1c(=O)c2c(nc(N3CCOCC3)n2CCc2ccccc2)n(C)c1=O
cell number change: 5.61%
AC50 [1]: 9.2 µM [rising, partial curve]

Cc1ccc(NC(=O)CSCC(=O)NCc2ccco2)cc1
cell number change: 22.5%

CCCN1C(=O)C(NC(C)=O)c2ccccc21 (stereo not given)
cell number change: -27.7%

CCOC(=O)c1c(N)sc(C(=O)N(CC)CC)c1C
cell number change: 15.8%
AC50 [1]: 13 µM [rising, partial curve, poor fit]

Cc1cc(OC(=O)c2ccc(S(=O)(=O)N(C)C)cc2)c([N+](=O)[O-])c(=O)[nH]1
cell number change: -36.2%
AC50 [2]: 0.116 µM [falling, full curve, poor fit]
AC50 [1]: 0.184 µM [falling, full curve]

COc1ccccc1C(=O)NC(CCSC)C(=O)NCc1ccccn1 (stereo not given)
cell number change: -38.2%
AC50 [2]: 32.6 µM [falling, single point]

CCN(CC)c1ccc(/C=N/NC(=O)c2ccc3nc[nH]c3c2)c(O)c1
cell number change: -39.5%
AC50 [1]: 1.84 µM [falling, partial curve, poor fit]

C/C(=N\O)C(C)NC(=O)c1ccccc1 (stereo not given)
cell number change: -19.4%
AC50 [1]: 32.6 µM [falling, single point]

Cc1cccc(CN2CCN(C(=O)CCc3nnc(C4CCCCC4)o3)CC2)c1
cell number change: 6.32%
AC50 [1]: 0.461 µM [falling, single point]

Cc1ccc(S/C(=N\S(=O)(=O)c2ccc(Cl)cc2)c2ccccc2)cc1
cell number change: 31.8%

CN(C)CCCN(Cc1ccccc1)C(=S)NCc1ccccc1
cell number change: -11.2%
AC50 [1]: 18.4 µM [falling, partial curve]
